According to US20190256585A1:
These are yes or no findings as the source states them, for the method shown. For part of these data: In cells and extracts the contact can be indirect. Some binding calls cover weakened binding; strength is not graded here.

Sequences of proteins named here, by UniProt entry; tags and fusion partners are left off. A change or cut given only in a name is not applied to a line headed by its entry. Residues count along the entry.
UniProt P08670: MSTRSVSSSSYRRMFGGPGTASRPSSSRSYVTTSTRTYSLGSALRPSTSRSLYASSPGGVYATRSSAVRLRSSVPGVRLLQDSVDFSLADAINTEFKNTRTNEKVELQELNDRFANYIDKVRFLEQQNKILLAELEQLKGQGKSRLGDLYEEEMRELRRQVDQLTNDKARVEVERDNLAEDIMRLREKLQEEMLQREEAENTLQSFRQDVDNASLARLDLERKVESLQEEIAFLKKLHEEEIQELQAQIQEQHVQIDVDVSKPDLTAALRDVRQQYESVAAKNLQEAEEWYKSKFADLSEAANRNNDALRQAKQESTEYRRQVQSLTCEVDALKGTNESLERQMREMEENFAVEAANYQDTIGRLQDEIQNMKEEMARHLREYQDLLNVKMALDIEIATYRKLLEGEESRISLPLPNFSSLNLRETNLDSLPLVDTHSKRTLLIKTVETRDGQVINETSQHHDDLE
vimentin (wt) overexpressed in MCF-7 cells (stable cell line), infected with EMC-D virus: residues 2-466 of P08670

How the values were obtained:
[1] = target: vimentin recombinant protein, wild-type, purified from E. coli (VR WT) (UniProt P08670); experiment: protein A pull-down of E. coli-purified vimentin with hzVSF_var13 (2:1 molar ratio), SDS-PAGE and western blot
[2] = target: vimentin WT (wild-type) overexpressed in HEK293T cells (UniProt P08670); experiment: immunoprecipitation from HEK293T lysate with hzVSF_var13 (1:100) and protein A beads, immunoblot
[3] = target: vimentin (wt) overexpressed in MCF-7 cells (stable cell line), infected with EMC-D virus (UniProt P08670); experiment: immunofluorescent staining of EMC-D-infected, fixed and permeabilized stable MCF-7 cells with hzVSF_var13 (1:250)

Measured: binding

B1: hzVSF_var13 (antibody, V domains shown)
VH: EVQLVQSGAEVKKPGASVKVSCKASGYTFTGYNMNWVRQAPGKGLEWMGNIDPYYGSDTYAQKFQGRVTMTVDKSISTAYMELSRLRSDDTAVYYCARETGTRAMDYWGQGTLVTVSS
VL: DIQMTQSPSSLSASVGDRVTITCRASENIYSNLAWYQQKPGKAPKLLIYVADNLADGVPSRFSGSGSGTDFTLTISSLQPEDFATYYCQHFYGSPRTFGGGTKVEIK
binds: all assays above
